Literature values, collected in PMC5629133 (Drugs in R&D, 2017).

Test system: human AGP variants
Conditions: separate AGP variants; cited from earlier work

For `CCN(CC)CC(=O)Nc1c(C)cccc1C` [lignocaine], which “AGP variant to which the drug binds” value is on record?
The value was “to both variants”.
